# According to publication PMC4630631:
# Sequences of proteins named here, by UniProt entry; tags and fusion partners are left off. Residues count along the entry.
# UniProt P07356: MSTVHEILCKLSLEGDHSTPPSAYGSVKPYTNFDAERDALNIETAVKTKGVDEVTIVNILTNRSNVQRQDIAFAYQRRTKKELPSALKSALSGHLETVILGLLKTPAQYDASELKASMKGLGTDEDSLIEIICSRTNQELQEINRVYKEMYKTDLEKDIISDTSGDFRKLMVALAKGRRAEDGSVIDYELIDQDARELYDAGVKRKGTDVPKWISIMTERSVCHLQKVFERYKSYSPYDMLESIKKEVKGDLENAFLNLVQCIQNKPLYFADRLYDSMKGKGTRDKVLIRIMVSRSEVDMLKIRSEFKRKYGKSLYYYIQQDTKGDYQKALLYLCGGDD
# UniProt Q9QUK6, residues 26-835: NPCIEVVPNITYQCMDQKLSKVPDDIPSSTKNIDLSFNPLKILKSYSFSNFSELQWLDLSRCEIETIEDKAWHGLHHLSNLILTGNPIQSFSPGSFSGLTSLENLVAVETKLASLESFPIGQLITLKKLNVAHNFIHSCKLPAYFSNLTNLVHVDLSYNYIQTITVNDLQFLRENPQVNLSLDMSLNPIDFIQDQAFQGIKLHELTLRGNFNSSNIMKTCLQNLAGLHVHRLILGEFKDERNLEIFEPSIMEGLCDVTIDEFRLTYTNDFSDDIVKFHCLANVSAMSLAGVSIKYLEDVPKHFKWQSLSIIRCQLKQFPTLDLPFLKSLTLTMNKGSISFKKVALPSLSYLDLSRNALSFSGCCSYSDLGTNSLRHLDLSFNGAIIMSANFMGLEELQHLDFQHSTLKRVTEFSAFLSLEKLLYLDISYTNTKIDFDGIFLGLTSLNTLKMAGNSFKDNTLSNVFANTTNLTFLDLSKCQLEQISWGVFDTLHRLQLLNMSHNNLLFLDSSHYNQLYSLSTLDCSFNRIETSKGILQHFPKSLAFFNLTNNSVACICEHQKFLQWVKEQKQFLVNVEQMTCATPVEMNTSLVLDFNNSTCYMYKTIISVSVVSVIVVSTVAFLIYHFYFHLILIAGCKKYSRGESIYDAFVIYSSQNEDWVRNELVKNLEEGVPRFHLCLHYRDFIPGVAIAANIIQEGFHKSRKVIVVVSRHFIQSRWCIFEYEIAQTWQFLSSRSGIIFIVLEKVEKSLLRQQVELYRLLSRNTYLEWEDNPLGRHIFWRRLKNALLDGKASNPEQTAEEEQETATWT
# UniProt Q8BJQ4: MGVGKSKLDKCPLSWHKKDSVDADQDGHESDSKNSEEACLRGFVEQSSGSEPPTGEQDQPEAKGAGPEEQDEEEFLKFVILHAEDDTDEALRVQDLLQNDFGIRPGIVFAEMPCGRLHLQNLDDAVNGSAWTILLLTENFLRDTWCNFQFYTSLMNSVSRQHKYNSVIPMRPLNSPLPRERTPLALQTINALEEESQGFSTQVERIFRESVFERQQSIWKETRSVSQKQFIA
# These are yes or no findings as the source states them, for the method shown. Binding seen in cells or lysates may run through a third protein. Some results given as binding are weak or reduced against the parent protein; the word gives no strength.
# B1: TIR domain-containing adaptor-inducing IFN-β (protein, UniProt Q80UF7 1-732)
# chain: MDNPGPSLRGAFGILGALERDRLTHLKHKLGSLCSGSQESKLLHAMVLLALGQDTEARVSLESLKMNTVAQLVAHQWADMETTEGPEEPPDLSWTVARLYHLLAEENLCPASTRDMAYQVALRDFASQGDHQLGQLQNEAWDRCSSDIKGDPSGFQPLHSHQGSLQPPSASPAVTRSQPRPIDTPDWSWGHTLHSTNSTASLASHLEISQSPTLAFLSSHHGTHGPSKLCNTPLDTQEPQLVPEGCQEPEEISWPPSVETSVSLGLPHEISVPEVSPEEASPILPDALAAPDTSVHCPIECTELSTNSRSPLTSTTESVGKQWPITSQRSPQVPVGDDSLQNTTSSSPPAQPPSLQASPKLPPSPLSSASSPSSYPAPPTSTSPVLDHSETSDQKFYNFVVIHARADEQVALRIREKLETLGVPDGATFCEEFQVPGRGELHCLQDAIDHSGFTILLLTASFDCSLSLHQINHALMNSLTQSGRQDCVIPLLPLECSQAQLSPDTTRLLHSIVWLDEHSPIFARKVANTFKTQKLQAQRVRWKKAQEARTLKEQSIQLEAERQNVAAISAAYTAYVHSYRAWQAEMNKLGVAFGKNLSLGTPTPSWPGCPQPIPSHPQGGTPVFPYSPQPPSFPQPPCFPQPPSFPQPPSFPLPPVSSPQSQSFPSASSPAPQTPGPQPLIIHHAQMVQLGVNNHMWGHTGAQSSDDKTECSENPCMGPLTDQGEPLLETPE
# Biological target: annexin A2 (mouse (endogenous in primary peritoneal macrophages)) (UniProt P07356)
# Assay: co-IP; lysates of WT primary peritoneal macrophages stimulated for 0, 5 or 10 min with LPS; 1 ml lysate immunoprecipitated with 2 ug AnxA2 antibody (or IgG) and 10 ul protein A sepharose beads; blotted with anti-TLR4, anti-TRAM, anti-TRIF or anti-NAK
row,Molecule,binding
1,Toll-like receptor 4 (from UniProt Q9QUK6 26-835),binds
2,TRIF-related adaptor molecule (from UniProt Q8BJQ4 1-232),binds
3,B1,binds
